According to US7592347B2, “Piperazine derivates and their use for the treatment of neurological and psychiatric diseases” (Glaxo Group Limited, priority 2003, dated 2009):
Some entries share one result that the patent states for a list of compounds.

Protein sequences, listed by entry. Tags and fused reporters are not part of them. Lines headed by an entry give the natural chain unless they say otherwise; changes in a name come on top.
UniProt Q9Y5N1: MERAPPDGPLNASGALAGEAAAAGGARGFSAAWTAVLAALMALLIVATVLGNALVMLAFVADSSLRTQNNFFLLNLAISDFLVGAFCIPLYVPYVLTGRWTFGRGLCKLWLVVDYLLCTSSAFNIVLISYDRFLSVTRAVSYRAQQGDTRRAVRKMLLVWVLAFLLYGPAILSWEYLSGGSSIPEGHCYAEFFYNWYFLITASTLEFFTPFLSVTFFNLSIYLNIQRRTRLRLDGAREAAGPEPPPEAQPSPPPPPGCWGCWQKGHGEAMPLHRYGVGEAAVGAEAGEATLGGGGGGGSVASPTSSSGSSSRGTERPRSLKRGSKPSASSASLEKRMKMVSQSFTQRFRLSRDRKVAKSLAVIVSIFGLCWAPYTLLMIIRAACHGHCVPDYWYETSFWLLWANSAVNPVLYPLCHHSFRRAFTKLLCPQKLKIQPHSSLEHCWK

Molecular target: T1, histamine H3 receptor (Homo sapiens, UniProt Q9Y5N1)
T1 construct: expressed in transfected cells; host or cells: CHO K1 cells carrying pSwitch, transfected with pGeneH3 and induced with mifepristone; clone 3H3; membranes
Assay: Histamine H3 functional antagonist assay ([35S]GTPγS SPA, membranes of CHO K1 cells expressing human H3)
Assay type: biochemical
Settings: functional antagonism of histamine (0.3 μM) stimulated [35S]GTPγS binding, membranes of CHO K1 cells with human histamine H3
Protocol: A membrane preparation containing histamine H3 receptors may be prepared in accordance with the following procedures:
Ligated DNA was transformed into competent DH5α E. coli host bacterial cells and plated onto Luria Broth (LB) agar containing Zeocin™ (an antibiotic which allows the selection of cells expressing the sh ble gene which is present on pGene and pSwitch) at 50 μg ml^−1. Colonies containing the re-ligated plasmid were identified by restriction analysis. DNA for transfection into mammalian cells was prepared from 250 ml cultures of the host bacterium containing the pGeneH3 plasmid and isolated using a DNA preparation kit (Qiagen Midi-Prep) as per manufacturers guidelines (Qiagen). […]
10-14 days post selection 10 nM Mifepristone (InVitrogen), was added to the culture medium to induce the expression of the receptor. […] Following two further washes with Sorting Medium, cells were filtered through a 50 μm Filcon™ (BD Biosciences) and then analysed on a FACS Vantage SE Flow Cytometer fitted with an Automatic Cell Deposition Unit. […]
The plate is then incubated on a shaker at room temperature for 30 minutes followed by centrifugation for 5 minutes at 1500 rpm. The plate is read between 3 and 6 hours after completion of centrifuge run in a Wallac Microbeta counter on a 1 minute normalised tritium count protocol. Data is analysed using a 4-parameter logistic equation. […]

N#Cc1cc(F)c(N2CCC(C(=O)N3CCCN(C4CCC4)CC3)CC2)cc1F [Example E69, 1-Cyclobutyl-4-[1-(4-cyano-2,5-difluorophenyl)-piperidinecarbonyl]-[1,4]-diazepane]
pKb: > 8.5
